Measured values reported in PubChem BioAssay AID1347075 (National Center for Advancing Translational Sciences (NCATS), 2019).
The whole screen tested about 400,000 compounds, of which about 5,500 (1.4%) were called active. Inconclusive means that the source gave no clear call. Such entries were picked first, then a sample of the others. Calls follow the shape of the dose curve; as a rule, active = well fitted cell-killing curve with a large enough effect; inconclusive = small, poorly fitted or top-dose-only effect, or effect the other way; inactive = flat fitted curve, though single readings scatter. Potencies beside an inconclusive call are fits to weak or partial responses and may not hold up.

assay: qHTS assay for MDR1-selective chemotherapeutics: Primary screen using the parental adenocarcinoma cell KB-3-1; conditions: KB-3-1 viability, CellTiter-Glo ATP luminescence, 72 h; activity change, negative = cytotoxic: at 46.1 µM (top of the series); also: nearly all actives have a fitted effect of over 60% in size
Summary of the method: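 Cells are dispensed, compounds pinned in, plates held at 37 °C for 72 h, then CellTiter-Glo is added and luminescence read after 10 minutes. Cell line: parental KB-3-1 in phenol-red-free DMEM, 10% FBS.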
% is scaled to controls: 0 for no effect and ±100 for the full control effect; potency is read from the fitted curve at half-maximal effect.

| Compound | Potency | activity change, negative = cytotoxic |
| --- | --- | --- |
| c1ccc(C2c3c(ccc4ccccc34)Oc3ncn4nc(-c5ccco5)nc4c32)cc1 (stereo not given) | inconclusive: 20.6 µM [cytotoxic, single point] |  |
| CCC1CCCCN1S(=O)(=O)c1ccc(C(=O)Nc2nnc(C3CC3)o2)cc1 (stereo not given) | inconclusive: 25.9 µM [cytotoxic, single point] |  |
| COc1ccc(C(=O)NCC(c2cccnc2)N2CCc3ccccc32)cc1OC (stereo not given) |  | inactive: -13.4% |
| NC(=O)CC(NC(=O)c1ccc(Br)cc1)c1ccc(N2CCC(Br)CC2)c([N+](=O)[O-])c1 (stereo not given) | inconclusive: 23.1 µM [cytotoxic, single point] |  |
| Cc1cccc2nc(-c3cccnc3)c(Nc3ccccc3)n12 | inconclusive: 18.4 µM [cytotoxic, single point] |  |
| CCN(c1ccccc1)S(=O)(=O)c1ccc(C(=O)Nc2cccc(C)n2)cc1 | inconclusive: 16.4 µM [cytotoxic, partial curve, poor fit] |  |
| Cn1c(N)c(C(=O)CSc2nc(C3CC3)n(-c3ccccc3)n2)c(=O)[nH]c1=O |  | inactive: -13% |
| CCCCn1c(N)c(N(C(=O)CSc2nnc(C)n2-c2ccccc2)C2CCCC2)c(=O)[nH]c1=O |  | inactive: 19.5% |
| CC(=NCc1ccco1)c1c(C)[nH]n(-c2nc3ccccc3s2)c1=O | inconclusive: 6.51 µM [cytotoxic, full curve, poor fit] |  |
| Cn1cc(S(=O)(=O)NC[C@H]2O[C@@H](n3ccc(=O)[nH]c3=O)[C@H](O)[C@@H]2O)cn1 |  | inactive: 0% |
| S=c1[nH]nc(-c2cccs2)n1/N=C/c1c(Cl)cccc1Cl |  | inactive: 15.5% |
| CCC(C)NC(=O)c1sc2ncccc2c1-n1c(C)ccc1C (stereo not given) | inconclusive: 18.4 µM [cytotoxic, single point] |  |
| Cc1cccc2nc(CSc3nc4[nH]ncc4c(=O)n3-c3cccc(Cl)c3)cc(=O)n12 | inconclusive: 18.4 µM [cytotoxic, single point] |  |
| OC(c1ccccc1)(c1ccccc1)C1CCN(CCCOc2cccc(OC(F)(F)F)c2)CC1 | inconclusive: 29.1 µM [cytotoxic, single point] |  |
| Cc1ccc(-n2nc(C(=O)N3CCN(c4cccc(C(F)(F)F)c4)CC3)c3c4ccccc4n(C)c3c2=O)cc1 |  | inactive: 10% |
| Cc1ccc(C(=O)N2CCCC(N3CCN(c4cccc(C(F)(F)F)c4)CC3)C2)s1 (stereo not given) | inconclusive: 18.4 µM [cytotoxic, single point] |  |
| CC(=O)N[C@@H](C)c1nc2ccccc2n1CCCN1CCN(c2nc(-c3ccc(C)cc3)cs2)CC1 | inconclusive: 18.4 µM [cytotoxic, single point] |  |
| Cc1ccc(/C=C2\C(=O)Nc3ccccc32)o1 | inconclusive: 29.1 µM [cytotoxic, single point] |  |
| O=C(/C=C/c1cccc([N+](=O)[O-])c1)c1cccs1 | inconclusive: 20.6 µM [cytotoxic, single point] |  |
| O=C1c2ccccc2C2=Nc3ccccc3SC(c3ccccc3F)C12 (stereo not given) | inconclusive: 29.1 µM [cytotoxic, single point] |  |
| S=c1[nH]nc(-c2cccnc2)n1/N=C/c1ccc(Br)s1 |  | inactive: 0.273% |
| CCCCN(CC)CCCNC(=O)c1ccc(CS(=O)(=O)c2c(Cl)cccc2Cl)o1 |  | inactive: -0.733% |

| Compound | Potency | activity change, negative = cytotoxic |
| --- | --- | --- |
| O=C(C1CCC(CNS(=O)(=O)c2cccc3nsnc23)CC1)N1CC=C(c2ccccc2)CC1 (stereo not given) | inconclusive: 29.1 µM [cytotoxic, single point] |  |
| COc1ccc(-c2ccc(CCC(=O)O)n2-c2ccc(Cl)cc2C)cc1 |  | inactive: -3.8% |
| CCN(C(=O)CSc1nc2n[nH]c(C)c2c(=N)n1-c1cccc(OC)c1)c1cccc(C)c1 | inconclusive: 29.1 µM [cytotoxic, single point] |  |
| O[C@@H]1CN(Cc2ccc(-n3cccn3)cc2)CC[C@H]1N1CCN(c2ccccc2F)CC1 | inconclusive: 5.17 µM [cytotoxic, partial curve] |  |
| O=C(NNC(=S)NC(=O)c1ccccc1)c1cccc([N+](=O)[O-])c1 | inconclusive: 20.6 µM [cytotoxic, single point] |  |
| Cn1c(=O)c(=O)n(C)c2cc([N+](=O)[O-])c([N+](=O)[O-])cc21 |  | inactive: -4.45% |
| CCCCCCn1c(N2CCN(c3cccc(Cl)c3)CC2)nc2c1c(=O)[nH]c(=O)n2C | inconclusive: 25.9 µM [cytotoxic, single point] |  |
| COc1ccc(C(=O)Nc2ccccc2N2CCN(C(=O)c3ccccc3)CC2)cc1Br | inconclusive: 32.6 µM [cytotoxic, single point] |  |
| CCOc1ccccc1C(=O)N1c2ccccc2Sc2ccccc21 | inconclusive: 32.6 µM [cytotoxic, single point] |  |
| O=C1CNCc2[nH]c3ccccc3c2N1c1ccccc1 |  | inactive: -16.1% |
| COc1ccc(-c2n[nH]c(C)c2-c2ccc(Cl)cc2)c(O)c1 | inconclusive: 29.1 µM [cytotoxic, single point] |  |
| Cn1nc(-c2ccccc2)c(CN2CCN(c3ncccn3)CC2)c1Cl | inconclusive: 13 µM [cytotoxic, partial curve, poor fit] |  |
| CCOc1ccc(C2C=C(c3ccc(C)cc3)Nc3nnnn32)cc1 (stereo not given) | inconclusive: 23.1 µM [cytotoxic, single point] |  |
| Cc1cc(C)c2sc(NC(=O)c3ccc([N+](=O)[O-])o3)nc2c1 | inconclusive: 29.1 µM [cytotoxic, single point] |  |
| COc1ccccc1CNC(=O)C(=O)NCC1OCCN1S(=O)(=O)c1cccs1 (stereo not given) | inconclusive: 7.31 µM [rising, partial curve] |  |
| Oc1cccc(Nc2nc(N3CCOCC3)nc(N3CCOCC3)n2)c1 | inconclusive: 20.6 µM [cytotoxic, single point] |  |
| CC1CC(C)CN(CCCNC(=O)c2cc3c(s2)-c2ccccc2OC3)C1 (stereo not given) | inconclusive: 29.1 µM [cytotoxic, single point] |  |
| Cn1c(=O)oc2cc(S(=O)(=O)N3CCC(C(=O)N4CCN(c5ccc(Cl)cc5)CC4)CC3)ccc21 | inconclusive: 29.1 µM [cytotoxic, single point] |  |
| CCN(CC)c1cc(C)c2cc(NC(=O)c3ccc(F)cc3Cl)ccc2n1 | inconclusive: 20.6 µM [cytotoxic, single point] |  |
| CN1CCN(C2CN(Cc3cn(Cc4ccc(Cl)cc4)nn3)S(=O)(=O)C2)CC1 (stereo not given) |  | inactive: 3.63% |
| O=[N+]([O-])c1ccc(/C=N/NS(=O)(=O)c2ccc(Cl)cc2)o1 |  | inactive: 5.52% |
| Cc1cccc(NS(=O)(=O)c2ccc(NC(=O)N3CCCC3)cc2)c1 | inconclusive: 29.1 µM [rising, single point] |  |

| Compound | Potency | activity change, negative = cytotoxic |
| --- | --- | --- |
| CC(C)C1Cc2c(sc3ncnc(NN)c23)CO1 (stereo not given) | inconclusive: 18.4 µM [cytotoxic, single point] |  |
| CC(C)CN(C(=O)COC(=O)C12CC3CC(CC(O)(C3)C1)C2)c1c(N)n(Cc2ccccc2)c(=O)[nH]c1=O |  | inactive: -2.66% |
| COc1ccc(Nc2nc(-c3c[nH]c4ccccc34)cs2)cc1 | inconclusive: 29.1 µM [cytotoxic, single point] |  |
| COc1ccc(C2CC(=O)N(Cc3ccccc3)c3c2c(C)nn3-c2nc(C)cc(C)n2)c(OC)c1 (stereo not given) |  | inconclusive: 13.9% |
| C/C(N)=C(/C#N)C(=O)COC(=O)COc1ccc(Cl)cc1 | inconclusive: 29.1 µM [rising, single point] |  |
| COc1ccc(OC)c2[nH]c(=O)c(CCNC(=O)c3ccc(S(=O)(=O)N4CCCCC4)cc3)cc12 |  | inactive: -4.72% |
| CCOc1cc(C(=O)NCCN2C(=O)S/C(=C\c3cccnc3)C2=O)cc(OCC)c1OCC |  | inactive: -3.15% |
| C[C@H](c1ccccc1)N1C[C@H](COCc2ccccc2)Oc2cc(N3CCC[C@@H]3CO)ccc2S1(=O)=O | inconclusive: 18.4 µM [cytotoxic, single point] |  |
| CCc1ccc(-c2nc(CN3CCC(C(=O)NCc4ccccc4OC)CC3)c(C)o2)cc1 | inconclusive: 35.5 µM [cytotoxic, single point] |  |
| O=C(Nc1nc(-c2ccc3ccccc3c2)cs1)C1CCN(S(=O)(=O)c2cccs2)CC1 | active: 4.61 µM |  |
| CCOC(=O)c1c(-c2ccccc2)oc2ccc(N(C(C)=O)S(=O)(=O)c3ccc(C)cc3)cc12 | inconclusive: 18.4 µM [cytotoxic, single point] |  |
| CCCc1cc(C(=O)NC2CCCN(Cc3ccccc3F)C2)no1 (stereo not given) |  | inactive: -10.4% |
| CCOC(=O)c1c(C)[nH]c(C)c1S(=O)(=O)NCc1ccc(OCC)cc1 |  | inactive: 3.21% |
| CC(C)(C)NC(=O)c1ccc2c(c1)C1C3CCC(C3)C1C(c1ccccc1)N2 (stereo not given) |  | inactive: -6.85% |
| COc1ccc(NC(=O)N2CCCC(c3nc(-c4ccc(C(C)C)cc4)no3)C2)cc1 (stereo not given) | inconclusive: 29.1 µM [cytotoxic, single point] |  |
| CCc1nc2c(OCc3ccc(Cl)cc3Cl)cccn2c1N(C)C(=O)c1ccccc1F | inconclusive: 29.1 µM [cytotoxic, single point] |  |
| CC(=O)c1ccc(OCc2cc(C(=O)N(C)C3CCOC3)no2)cc1 (stereo not given) | inconclusive: 0.366 µM [rising, full curve] |  |
| O=C(CCc1nc2ccccc2c(=O)[nH]1)Nc1cccc(S(=O)(=O)N2CCOCC2)c1 | inconclusive: 1.3 µM [rising, full curve] |  |
| CCOC(=O)C1=CN(CC)S(=O)(=O)NC1c1ccc(C(F)(F)F)cc1 (stereo not given) |  | inactive: 0% |
| CCOC(=O)c1c(C)oc2c1c(C(c1ccncc1)N1CCOCC1)c(O)c1ccccc12 (stereo not given) | inconclusive: 32.6 µM [cytotoxic, single point] |  |
| O=C(N/C=N/OCc1cccc(C(F)(F)F)c1)N1OC[C@@H]2COc3ccc4ccccc4c3[C@@H]21 | inconclusive: 14.6 µM [cytotoxic, partial curve, poor fit] |  |

Four entries from above, set out differently:
CCCc1cc(C(=O)NC2CCCN(Cc3ccccc3F)C2)no1 (stereo not given)
  activity change, negative = cytotoxic: inactive: -10.4%
CCOC(=O)c1c(C)[nH]c(C)c1S(=O)(=O)NCc1ccc(OCC)cc1
  activity change, negative = cytotoxic: inactive: 3.21%
CC(C)(C)NC(=O)c1ccc2c(c1)C1C3CCC(C3)C1C(c1ccccc1)N2 (stereo not given)
  activity change, negative = cytotoxic: inactive: -6.85%
COc1ccc(NC(=O)N2CCCC(c3nc(-c4ccc(C(C)C)cc4)no3)C2)cc1 (stereo not given)
  Potency: inconclusive: 29.1 µM [cytotoxic, single point]
